Values from PubChem BioAssay AID1259308 (NCATS, 2017).
Assay: 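Candidate targets for better recombinant protein yield in mammalian cells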 (primary screen). Cells: human HEK293 embryonic kidney cells stably expressing firefly luciferase (HEK-CMV-Luc2-Hygro). Knock-down reagent: single siRNA against human genes, 0.8 pmol siRNA per well. Timing: 72 h. Detection: 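Luciferase light (ONE-Glo) measured on one replicate plate set and viability (CellTiter-Glo) on the other, scaled to a negative control siRNA, with robust z-scores and luciferase per cell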. Reading the numbers: total luciferase, z-score and total luciferase, % of control: higher = more reporter protein produced; luciferase per cell, z-score: higher = more reporter output per viable cell; viable cells, % of control: higher = more viable cells. Call rule: 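Active when the median/MAD z-score for overall luciferase is greater than 3; a gene was taken forward for validation with new siRNAs if at least two of its three siRNAs passed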. Meaning of the calls: active = raised luciferase; inactive = no rise.
In all, the deposit lists about 59,000 reagents; shown is a part drawn at random. In the full data, about 1,510 (2.6%) were called active. 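Calls use total luciferase alone and ignore viability, so some active siRNAs may act by altering cell number.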 Entries without a mark were called inactive. Reagents against one gene are numbered here.

| gene | reagent no. | total luciferase, z-score | total luciferase, % of control | luciferase per cell, z-score | viable cells, % of control |
| --- | --- | --- | --- | --- | --- |
| FOXK1 (forkhead box K1) | 1 | 0.795 | 97.7 | 1.63 | 71 |
| FOXK1 (forkhead box K1) | 2 | -2.76 | 27 | -2.04 | 51.7 |
| FOXK1 (forkhead box K1) | 3 | -0.238 | 77.2 | 0.712 | 71.5 |
| LINC01433 (long independently transcribed non-coding RNA 1433) | 1 | -0.55 | 71 | -0.193 | 83.4 |
| LINC01433 (long independently transcribed non-coding RNA 1433) | 2 | -0.538 | 71.2 | 0.0682 | 78.1 |
| LINC01433 (long independently transcribed non-coding RNA 1433) | 3 | -3.12 | 19.8 | -4.59 | 74 |
| ASPG (asparaginase) | 1 | 0.866 | 99.1 | 0.53 | 96.3 |
| ASPG (asparaginase) | 2 | -0.307 | 75.8 | -0.247 | 90.4 |
| ASPG (asparaginase) | 3 | -0.775 | 66.5 | -0.865 | 93.3 |
| EFHD1 (EF-hand domain family member D1) | 1 | 0.123 | 84.3 | 1.16 | 69.4 |
| EFHD1 (EF-hand domain family member D1) | 2 | -0.302 | 75.9 | 0.43 | 75.7 |
| EFHD1 (EF-hand domain family member D1) | 3 | 0.357 | 89 | 0.618 | 84.5 |
| HOXA11 (homeobox A11) | 1 | -0.423 | 73.5 | -0.614 | 96.5 |
| HOXA11 (homeobox A11) | 2 | -0.752 | 66.9 | -1.06 | 98.9 |
| HOXA11 (homeobox A11) | 3 | -0.326 | 75.4 | -0.698 | 101 |
| RSBN1 (round spermatid basic protein 1) | 1 | -0.346 | 75 | -0.421 | 93.6 |
| RSBN1 (round spermatid basic protein 1) | 2 | 1.33 | 108 | 0.428 | 108 |
| RSBN1 (round spermatid basic protein 1) | 3 | 0.89 | 99.6 | 0.303 | 103 |
| SHCBP1 (SHC binding and spindle associated 1) | 1 | 0.678 | 95.4 | 0.621 | 90.5 |
| SHCBP1 (SHC binding and spindle associated 1) | 2 | -0.137 | 79.2 | -0.335 | 96.6 |
| SHCBP1 (SHC binding and spindle associated 1) | 3 | -1.39 | 54.2 | -1.16 | 82.3 |
| IL5 (interleukin 5) | 1 | 0.357 | 89 | 0.822 | 80.1 |
| IL5 (interleukin 5) | 2 | -0.389 | 74.1 | -0.149 | 86.2 |
| IL5 (interleukin 5) | 3 | -1.71 | 47.8 | 3.13 | 23.5 |
| CCNI2 (cyclin I family member 2) | 1 | -0.0675 | 80.5 | 0.34 | 82.3 |
| CCNI2 (cyclin I family member 2) | 2 | 0.986 | 101 | 1.2 | 82.8 |
| CCNI2 (cyclin I family member 2) | 3 | 2.04 | 123 | 1.72 | 87.2 |
| LIN7B (lin-7 cell polarity scaffold B) | 1 | -0.288 | 76.2 | -0.329 | 92.8 |
| LIN7B (lin-7 cell polarity scaffold B) | 2 | 1.37 | 109 | 0.706 | 101 |
| LIN7B (lin-7 cell polarity scaffold B) | 3 | -0.341 | 75.1 | -0.778 | 103 |
| MCL1 (MCL1 apoptosis regulator, BCL2 family member) | 1 | 0.251 | 86.9 | -0.0574 | 98.6 |
| MCL1 (MCL1 apoptosis regulator, BCL2 family member) | 2 | -0.12 | 79.5 | -0.473 | 101 |
| MCL1 (MCL1 apoptosis regulator, BCL2 family member) | 3 | -0.885 | 64.3 | -1.19 | 98.2 |
| SAP30 (Sin3A associated protein 30) | 1 | -0.186 | 78.2 | -0.991 | 113 |
| SAP30 (Sin3A associated protein 30) | 2 | -0.0653 | 80.6 | 0.224 | 84.9 |
| SAP30 (Sin3A associated protein 30) | 3 | -0.393 | 74.1 | -1.06 | 109 |
| AGBL4 (AGBL carboxypeptidase 4) | 1 | -1.64 | 49.3 | 0.0076 | 55 |
| AGBL4 (AGBL carboxypeptidase 4) | 2 | -0.845 | 65.1 | -0.33 | 79.3 |
| AGBL4 (AGBL carboxypeptidase 4) | 3 | 0.86 | 99 | 0.819 | 89.2 |
| ZNF596 (zinc finger protein 596) | 1 | 1.36 | 109 | 0.727 | 101 |
| ZNF596 (zinc finger protein 596) | 2 | 4.37 (active) | 169 | 3.17 | 81.8 |
| ZNF596 (zinc finger protein 596) | 3 | 1.68 | 115 | 2.25 | 71.2 |
| SLC47A2 | 1 | -1.44 | 53.3 | -1.48 | 88 |
| SLC47A2 | 2 | -0.00185 | 81.8 | 0.294 | 84.7 |
| SLC47A2 | 3 | 1.25 | 107 | 0.774 | 97.4 |
| SLC25A5 | 1 | 2.62 | 134 | 1.41 | 103 |
| SLC25A5 | 2 | -1.19 | 58.2 | -0.972 | 84 |
| SLC25A5 | 3 | 1.1 | 104 | 1.05 | 87.9 |
| A1CF (APOBEC1 complementation factor) | 1 | 0.83 | 98.4 | 0.707 | 91.3 |
| A1CF (APOBEC1 complementation factor) | 2 | 0.371 | 89.3 | -0.277 | 107 |
| A1CF (APOBEC1 complementation factor) | 3 | -1.1 | 60 | -1.83 | 109 |
| ACOT1 (acyl-CoA thioesterase 1) | 1 | 1.39 | 110 | 1.76 | 77 |
| ACOT1 (acyl-CoA thioesterase 1) | 2 | 2.3 | 128 | 2.63 | 71.5 |
| ACOT1 (acyl-CoA thioesterase 1) | 3 | 0.357 | 89 | 0.749 | 81.6 |
| P2RY13 (purinergic receptor P2Y13) | 1 | -0.604 | 69.9 | -0.565 | 90.6 |
| P2RY13 (purinergic receptor P2Y13) | 2 | -1.28 | 56.5 | -0.332 | 68.8 |
| P2RY13 (purinergic receptor P2Y13) | 3 | -0.529 | 71.4 | -1.3 | 112 |

3 consecutive entries already listed, quoted:
| gene | reagent no. | total luciferase, z-score | total luciferase, % of control | luciferase per cell, z-score | viable cells, % of control |
| --- | --- | --- | --- | --- | --- |
| ZNF596 (zinc finger protein 596) | 2 | 4.37 (active) | 169 | 3.17 | 81.8 |
| ZNF596 (zinc finger protein 596) | 3 | 1.68 | 115 | 2.25 | 71.2 |
| SLC47A2 | 1 | -1.44 | 53.3 | -1.48 | 88 |
